# Measured values from article PMC12040169 (PLOS Biology, 2025).
# This is one part of the list.
# Tested on: T1, CTL2-GFP (C. trachomatis L2/434/Bu, GFP-expressing)
# T1 construct: L2/434/Bu, GFP-expressing
# Parameters: species or system HeLa; Intracellular C. trachomatis growth in HeLa cells, bulk GFP fluorescence relative to DMSO
# Settings: bulk GFP, single well; 28.5 h, 10 µM; inhibitor
row,Compound,% of control remaining [%]
1,Cc1ccc(-c2ccc(Nc3ccc(Oc4ccccc4)cc3)nc2)cc1C [CBK037740],185.563
2,CC(C)(C)S(=O)(=O)CC(N)=S [CBK021304],138.748
3,CC1=CCC2C(=O)N(C(CC(C)C)C(=O)O)C(=O)C2C1 (centres unmarked) [CBK287172],129.553
4,CCn1ncc2c1CCCC2NC1CCCN(c2cnn(C)c2)C1=O (centres unmarked) [CBK305316],126.032
5,COc1ccc(S(=O)(=O)N2CCC(C(=O)NCc3cccnc3)CC2)cc1Cl [CBK267613],137.159
6,Cc1cc(C)n(CC(=O)N[C@H]2CC[C@H]2N)c(=O)n1 [CBK307647],133.349
7,Cc1ccc(CCC(=O)N(CC(=O)O)C2CCOCC2)c(C)c1 [CBK304509],141.463
8,CCn1cnc(S(=O)(=O)N2CCC(OCc3ccccc3)CC2)c1 [CBK305228],130.526
9,Cc1c(C(=O)O)sc(S(=O)(=O)N2CCN(C(=O)c3ccc(Cl)cc3)CC2)c1C(=O)O [CBK297123],136.706
10,COc1ccc(C[C@@H]2NC(=O)[C@H]3CN(C(=O)c4cccn4C)CCN3C2=O)cc1 [CBK289616],97.8751
11,O=C(O)c1oc2ccccc2c1CSc1ccccn1 [CBK286981],131.635
12,CC(C)(C)OC(=O)N1CCCC(NC(CO)c2ccco2)CC1 (centres unmarked) [CBK304049],101.441
13,Cc1ccc(C(=O)NC[C@H]2O[C@@H](CC(=O)N3CCCC3)[C@H](O)[C@@H]2O)cc1 [CBK288912],84.8703
14,O=C(Nc1nc(-c2ccco2)c(-c2ccncc2)s1)C1CC1 [CBK284494],140.469
15,O=C(O)C1CCN(C(=O)CSc2nnc(-c3ccccc3F)n2C2CCCC2)CC1 [CBK296971],129.573
16,CCN(NC(=O)c1ccccc1-n1cccc1)c1ccc(C)cc1 [CBK161507],98.2918
17,S=C(NCCn1cc(Br)cn1)NCc1ccco1 [CBK266914],151.084
18,CN(C)CCNCCP(=O)(c1ccccc1)c1ccccc1 [CBK263049],100
19,Clc1nsnc1N1CCOCC1 [CBK019133],134.933
20,CCn1c2ccccc2c2cc(NC(=O)CSc3nnc(-c4ccoc4C)o3)ccc21 [CBK269010],124.872
21,CCOC(=O)CN1CCCN(c2c(F)cc(C#N)cc2F)CC1 [CBK304148],99.6012
22,COC(=O)c1ccsc1NS(=O)(=O)c1ccc(F)cc1 [CBK039060],154.343
23,O=C(c1ccc(F)cc1)[C@H]1CCCN(C(=O)c2cc[nH]n2)C1 [CBK284331],117.745
24,O=C(Nc1ccc2ccccc2c1)N1CCN(C(=O)C2CCCO2)CC1 (centres unmarked) [CBK044043],88.5204
25,CCOc1cccc(-c2ccc(Nc3cccc(NC(=O)c4ccncc4)c3)nc2)c1 [CBK037739],122.842
26,COc1cc(/N=C(\N)Nc2nc(=O)cc(CSc3ccc(C)cc3)[nH]2)cc(OC)c1 [CBK265532],125.651
27,O=S(=O)(NC1c2cccc3cccc(c23)C1N1CCNCC1)c1ccc(Cl)cc1 (centres unmarked) [CBK264082],116.854

row,Compound,% of control remaining [%]
1,Cc1nc(C2CCCN(C(=O)C3CCCO3)C2)c2sccn12 (centres unmarked) [CBK282241],96.5174
2,Cn1nccc1NS(=O)(=O)c1cc(C(F)(F)F)cc(C(F)(F)F)c1 [CBK062090],132.247
3,CN(Cc1nc2c(s1)CCCC2)C(=O)COc1ncnc2ccccc12 [CBK307151],143.272
4,CCN1CCN(c2ccc(NC(=O)Cc3cn4ccsc4n3)cc2)CC1 [CBK305892],141.846
5,CC(=O)Nc1ccccc1NC(=O)c1ccccc1CCc1ccccc1 [CBK268621],118.462
6,CC(C)N1CCOC[C@H]1c1nc(-c2ccc(S(C)(=O)=O)cc2)c[nH]1 [CBK289301],117.013
7,CCCc1cc(C(=O)N2CCCN(Cc3cnn(CC)c3)CC2)[nH]n1 [CBK305293],98.822
8,O=S(=O)(c1ccc(OC(F)(F)F)cc1)N1CCCCC1CO (centres unmarked) [CBK051527],100.4
9,Cc1cc(I)ccc1NCC(=O)NN [CBK261738],123.192
10,CCn1cc(CN2CCCN(C(=O)c3cc(C4CC4)on3)CC2)cn1 [CBK305401],116.165
11,COCCCN1C(=O)C(O)=C(C(=O)c2ccc(Cl)cc2)C1c1cccc(O)c1 (centres unmarked) [CBK264892],139.28
12,Cc1cc(NS(=O)(=O)c2cc(OCC(N)=O)c(C)cc2Cl)no1 [CBK266456],176.979
13,O=C(O)CC(NC(=O)c1ccco1)c1ccc(F)cc1 (centres unmarked) [CBK057988],112.406
14,O=C(CN1C(=O)N2CCCN=C2c2ccc(Cl)cc21)NC1CC1 [CBK284388],98.5406
15,CC(C)Oc1cccc2cccc(C(O)CN(C)C)c12 (centres unmarked) [CBK009892],124.043
16,CC(=O)c1ccc(NC(=O)CSc2ncccc2C(=O)O)cc1 [CBK299798],118.616
17,O=C(Nc1ccc(I)cc1)c1ccc(CN2CCc3ccccc3C2)cc1 [CBK262672],138.532
18,COc1cc(C(CC(=O)O)C(=O)O)c([N+](=O)[O-])cc1OC (centres unmarked) [CBK268541],129.669
19,COc1ccc(NC(=O)CSc2nc(N)cc(O)n2)c([N+](=O)[O-])c1 [CBK267904],100.475
20,CC(=O)c1ccc(-c2nc(-c3occc3C=O)cnc2N)cc1 [CBK064081],138.191
21,O=C(c1ccc(F)cc1)N1C2CCC1CC(O)(c1ccccc1F)C2 (centres unmarked) [CBK121719],110.791
22,CCn1ncc(CN(CCN(C)C)Cc2cccs2)c1C [CBK282958],101.478
23,COc1ccc(C(C)C)cc1-c1cnc(N)c(NCc2ccncc2)n1 [CBK063695],146.571
24,CCOC(=O)c1cnc(N2CCOCC2)nc1NCCc1c[nH]c2ccccc12 [CBK093605],126.359
25,O=S(=O)(c1ccc(Cl)cc1)N1CCN(S(=O)(=O)N2CCOCC2)CC1 [CBK266878],162.273
26,OCc1ccccc1-c1cncc(NCCc2c[nH]c3ccccc23)n1 [CBK037852],108.269
27,O=C(Cn1c(=O)cc(O)c2ccccc21)N1CCN(c2ccccn2)CC1 [CBK291117],142.08

row,Compound,% of control remaining [%]
1,COc1ccc(Nc2cc(-c3ccc(SC)cc3)ncn2)c(C)c1 [CBK091042],153.363
2,CCOC(=O)CCNC(=O)c1cc2cccc(OC)c2o1 [CBK149816],116.909
3,O=C(O)CC(NC(=O)c1ccccc1)c1ccco1 (centres unmarked) [CBK268843],149.635
4,COc1ccc(OC(C)C(=O)Nc2ccc(S(N)(=O)=O)cc2)cc1 (centres unmarked) [CBK263646],130.556
5,COc1cc(-c2cncc(NCCc3ccncc3)n2)cc(OC)c1OC [CBK065405],186.103
6,Nc1ncc(-c2ccncc2)nc1NCc1cccnc1 [CBK063879],167.601
7,COc1ccc(NC(=O)c2c(NC(=O)CN3CCCC(C)C3)sc3c2CCC3)cc1 (centres unmarked) [CBK265061],137.166
8,O=C(O)c1ccc2c(c1)C(=O)N(c1ccc(/C=C/C(=O)c3ccccc3)cc1)C2=O [CBK261181],115.926
9,Cc1ccc2cccc(OS(=O)(=O)c3ccc(Cl)c(C)c3Cl)c2n1 [CBK263984],81.5054
10,CCC(O)c1cc2n(n1)CCN(C(=O)c1cn(-c3ccccc3)nn1)C2 (centres unmarked) [CBK306708],84.2569
11,COC(=O)c1ccc(COc2nc3ccccc3nc2/C=C/c2cccc([N+](=O)[O-])c2)cc1 [CBK268776],138.106
12,Cc1cccc(C(=O)N2CCN(Cc3cc(=O)n4ccsc4n3)CC2)c1 [CBK305037],125.031
13,O=C(CN1CCOCC1)N1CCc2ccccc21 [CBK200271],76.4791
14,Cc1cc(COC(=O)N2CCCC(F)(F)C2)cc(C)n1 [CBK200151],113.953
15,CCN(CC)CC(=O)Nc1ccc(Br)cc1C(=O)c1ccccc1 [CBK262983],114.488
16,c1ccc(CNCc2nc(-c3ccccc3)no2)cc1 [CBK024404],103.644
17,Cc1cnn(CC(=O)NC(C)c2cc3cc(Cl)ccc3o2)c1 (centres unmarked) [CBK281447],123.377
18,O=C1NC2(CCN(C(=O)CCc3ccc(-c4ccccc4)o3)CC2)Nc2ccccc21 [CBK286316],55.1481
19,CC(NC(=O)CCc1cscn1)c1nc(-c2ccncc2)cs1 (centres unmarked) [CBK305260],140.48
20,CC(CN1CCOCC1)C(=O)N1CC(C(=O)N2CCN(c3ccccc3)CC2)C1 (centres unmarked) [CBK286047],122.533
21,CCN1CC2(CCN(Cc3nc4ccccc4s3)CC2)c2ccccc21 [CBK136993],92.4987
22,COc1cncc(-c2cncc(N[C@H](C)c3ccccc3)n2)c1 [CBK065537],97.6883
23,CC(C)C(Nc1nc2ncn(Cc3ccccc3)c2c(=O)[nH]1)C(=O)O (centres unmarked) [CBK261685],113.848
24,Cc1nc(-c2ccco2)nc2sc(C(=O)N(C)CC3COc4ccccc4O3)c(C)c12 (centres unmarked) [CBK295347],153.693
25,COc1ccc(N2C(=O)CSC23C(=O)N(Cc2ccc(Cl)cc2)c2ccccc23)cc1 (centres unmarked) [CBK092396],114.914
26,Cc1ccc(-c2cc(C(=O)N3CCOCC3)c3cc(Br)ccc3n2)cc1 [CBK066901],126.67

# Compounds shown so far that have bromine, in the order listed:
row,Compound,% of control remaining [%]
17,S=C(NCCn1cc(Br)cn1)NCc1ccco1 [CBK266914],151.084
15,CCN(CC)CC(=O)Nc1ccc(Br)cc1C(=O)c1ccccc1 [CBK262983],114.488
26,Cc1ccc(-c2cc(C(=O)N3CCOCC3)c3cc(Br)ccc3n2)cc1 [CBK066901],126.67

# For reference, some entries already given.
row,Compound,% of control remaining [%]
20,CC(=O)c1ccc(-c2nc(-c3occc3C=O)cnc2N)cc1 [CBK064081],138.191
21,O=C(c1ccc(F)cc1)N1C2CCC1CC(O)(c1ccccc1F)C2 (centres unmarked) [CBK121719],110.791
